Reference: PubChem BioAssay AID2551 (National Center for Advancing Translational Sciences (NCATS), 2010)
The whole screen tested about 310,000 compounds, of which about 17,000 (5.5%) were called active. Inconclusive means that the source gave no clear call. Such entries were picked first, then a sample of the others. Calls come from the whole dose curve; as a rule, active = well fitted inhibition curve with a large enough effect; inconclusive = small, poorly fitted or top-dose-only effect, or effect the other way; inactive = no such curve, though single readings can be large or run the other way. A potency beside an inconclusive call is a rough fit, not a confirmed value.
% is set by controls: 0 for no effect and ±100 for the full control effect; potency is the fitted concentration of half-maximal effect.
Note: nearly all actives have a fitted effect of over 60% in size.

Sequences of proteins named here, by UniProt entry; tags and fusion partners are left off. A change or cut given only in a name is not applied to a line headed by its entry.
UniProt P51450: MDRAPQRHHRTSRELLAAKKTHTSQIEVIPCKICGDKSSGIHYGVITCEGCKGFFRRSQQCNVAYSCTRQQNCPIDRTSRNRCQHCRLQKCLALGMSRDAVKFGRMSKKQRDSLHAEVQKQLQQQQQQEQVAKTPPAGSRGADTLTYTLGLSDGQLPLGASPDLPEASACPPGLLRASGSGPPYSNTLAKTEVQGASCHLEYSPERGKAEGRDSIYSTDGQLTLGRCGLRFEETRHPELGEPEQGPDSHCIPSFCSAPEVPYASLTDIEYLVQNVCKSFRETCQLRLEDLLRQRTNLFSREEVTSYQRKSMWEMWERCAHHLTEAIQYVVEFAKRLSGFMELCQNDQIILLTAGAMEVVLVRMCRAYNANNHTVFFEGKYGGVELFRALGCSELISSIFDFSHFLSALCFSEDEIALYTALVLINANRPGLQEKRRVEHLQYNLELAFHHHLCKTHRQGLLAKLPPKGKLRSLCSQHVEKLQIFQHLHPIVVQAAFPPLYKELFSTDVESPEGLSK

What follows are compounds tested against Nuclear receptor ROR-gamma (Mus musculus) (UniProt P51450) (assay: qHTS for inhibitors of ROR gamma transcriptional activity). Conditions: Drosophila S2 Gal4-RORgamma UAS-luciferase reporter, 20 h; activity change, negative = inhibition: at 53.6 µM (top of the series).
Summary of the method: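 Schneider cells (Drosophila), stable Gal4 DBD–ROR gamma + UAS-luc; 1 hr cmpd preincubation; Cu2+ induction 700 uM final; 20 hr ambient; luminescence.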
With `O=C(Nc1ccc(Cl)cc1)C(Cl)C(=O)c1ccccc1` (stereo unspecified) the Potency was “inactive”.
`Cc1ccccc1OCC(=O)NCCNC(=O)c1ccncc1` was tested, and the Potency was “inactive”.
`CCCCOc1ccc(C(O)(CCC)CCN2CCOCC2)cc1` (stereo unspecified) was tested, and the Potency was inconclusive: 14.1 µM [activator, single point].
For `CN(C)C(=S)NC(=O)C12CC3CC(C)(CC(C)(C3)C1)C2`, the Potency was active: 5.01 µM.
`COc1ccc2[nH]c(=O)c(CN(CCO)S(=O)(=O)c3ccc4c(c3)OCCO4)cc2c1` was tested, and the Potency was “inactive”.
With `COc1cccc(Cl)c1NC(=O)N1CCc2c([nH]c3ccccc23)C1C(F)(F)F` (stereo unspecified) the Potency was inconclusive: 11.2 µM [activator, partial curve].
With `CC1C/C(=C\c2cccnc2)C(=O)/C(=C/c2cccnc2)C1` (stereo unspecified) the Potency was active: 1.12 µM.
With `Cn1c(/C=N/O)nc2ccccc21` the Potency was “inactive”.
`Oc1ccc2ccccc2c1C=Nc1cc(C(F)(F)F)ccc1N1CCCC1` was tested, and the Potency was inconclusive: 14.1 µM [inhibitor, single point].
For `COc1ccc(C(=O)O/N=C(\N)c2cccc(C)c2)cc1OC`, the Potency was active: 1 µM.
In the case of `Cc1cccc(NC(=O)N2CCCC2C(=O)NCc2cccs2)c1` (stereo unspecified), the Potency is reported as inconclusive: 11.2 µM [activator, single point].
With `COc1cc([N+](=O)[O-])ccc1NC(=O)CCCOc1cccc(C)c1` the Potency was inconclusive: 15.8 µM [activator, single point].
In the case of `O=C(CN1CCOCC1)Nc1ccc(C2CCCCC2)cc1`, the Potency is reported as “inactive”.
With `COc1ccc(CNC(=O)c2cc(C(=O)C3CC3)c[nH]2)cc1` the Potency was inconclusive: 2 µM [activator, partial curve, poor fit].
In the case of `CC1CN(C(=S)NC(=O)c2ccccc2)CC(C)O1` (stereo unspecified), the Potency is reported as active: 3.55 µM.
For `CCOc1ccc(Nc2nc(Cc3nnc(SCC(=O)c4ccc(C)c(C)c4)o3)cs2)cc1`, the Potency was inconclusive: 35.5 µM [inhibitor, single point].
`C=CCN1C(=Nc2ccccc2)SC/C1=C\C(=O)OC` was tested, and the Potency was inconclusive: 28.2 µM [inhibitor, single point].
With `FC(F)(F)c1nnc2c(Sc3ccccn3)nc3ccccc3n12` the Potency was active: 10 µM.
In the case of `O=C(/C=C/c1cccnc1)c1cccc(O)c1`, the Potency is reported as inconclusive: 17.8 µM [inhibitor, single point].
With `O=C(O)CSc1nc2c(c(=O)[nH]1)CCCC2` the Potency was “inactive”.
For `CC(C)(C)C1CCc2c(sc(NC(=O)c3ccncc3)c2C(N)=O)C1` (stereo unspecified), the Potency was inconclusive: 2.82 µM [activator, partial curve].
`CCc1ccc2nc3c(c(C(=O)O)c2c1)CCC3` was tested, and the Potency was inconclusive: 0.0063 µM [activator, full curve, poor fit].
With `COc1ccc(CCNc2ncnc3c2oc2ccccc23)cc1OC` the Potency was inconclusive: 20 µM [inhibitor, single point].
For `O=C(C1CCCN(Cc2ccccc2Cl)C1)N1CCCCC1` (stereo unspecified), the Potency was “inactive”.
`CN(Cc1c(C(=O)N/N=C/c2cccc(F)c2)nnn1-c1nonc1N)C1CCCCC1` was tested, and the Potency was “inactive”.
With `C=CCn1c(SCC(=O)Nc2cc(C)on2)nc2sc(C)c(C)c2c1=O` the Potency was “inactive”.
With `Cn1c(NC(=O)C[n+]2cc(-c3ccc(F)cc3)n3c2CCC3)cc(=O)n(C)c1=O` the Potency was “inactive”.
In the case of `O=C(N/N=C/C1C(c2ccccc2)C1(Cl)Cl)c1cccc(Br)c1` (stereo unspecified), the Potency is reported as active: 4.47 µM.
With `COc1ccc(OC)c(NC(=O)COC(=O)c2cc3c(s2)CCC3)c1` the Potency was “inactive”.
For `COc1ccc2cnn(CCOc3cc(C)ccc3C(C)C)c(=O)c2c1OC`, the Potency was inconclusive: 35.5 µM [activator, single point].
For `COC(=O)/C(=C\Nc1ccc(OC)cc1)NC(=O)c1ccc(Cl)cc1Cl`, the Potency was “inactive”.
`O=C(CSc1nnc(SCc2cccc3ccccc23)s1)N/N=C/C=C/c1ccccc1[N+](=O)[O-]` was tested, and the Potency was inconclusive: 15.8 µM [inhibitor, single point].
In the case of `CCCCOC(=O)CSc1nc2ccccc2o1`, the Potency is reported as “inactive”.
`C[C@H](NC(=O)c1nc[nH]c1C(=O)NCc1ccc(CNC(=O)OC(C)(C)C)cc1)C(=O)OC(C)(C)C` was tested, and the Potency was inconclusive: 15.8 µM [inhibitor, partial curve].
`O=C1OCCN1c1c(-c2ccccc2)c(-c2cccs2)nc2c(-c3ccccc3)cccc12` was tested, and the Potency was “inactive”.
In the case of `COCCN(C(=O)Cc1cccs1)C(C(=O)NCc1ccc(OC)cc1)c1ccc(C(C)C)cc1` (stereo unspecified), the Potency is reported as inconclusive: 35.5 µM [activator, single point].
`COc1ccccc1NC(=O)CSc1nnnn1-c1ccccc1F` was tested, and the Potency was “inactive”.
In the case of `COCC#Cc1ccc(C2NC(C(=O)O)CCC2C)cc1` (stereo unspecified), the activity change, negative = inhibition is reported as inactive: 8.16% [at 10 µM].
For `CN(C)S(=O)(=O)c1ccc(C(=O)Nc2ccc3c(c2)CCC3)cc1`, the Potency was “inactive”.
In the case of `CN(C)CCCN(Cc1cc2cc3c(cc2[nH]c1=O)OCO3)C(=S)Nc1ccccc1`, the Potency is reported as “inactive”.
In the case of `O=C(O)/C(=C\c1ccc(-c2ccc(F)cc2)o1)c1ccccc1`, the Potency is reported as “inactive”.
`COc1ccc(S(=O)(=O)CCC(=O)NC2CCCCC2)cc1` was tested, and the Potency was inconclusive: 35.5 µM [inhibitor, single point].
`CCN(CCNC(=O)CN(C)S(=O)(=O)c1cccc2nsnc12)c1ccccc1` was tested, and the Potency was “inactive”.
`CCOc1cc(CNc2ccc(Br)cc2)cc(Br)c1OCC(=O)NC(C)(C)C` was tested, and the Potency was “inactive”.
In the case of `O=C(CN(C(=O)c1ccccc1Cl)C1CCCCC1)Nc1ccc(Cl)c([N+](=O)[O-])c1`, the Potency is reported as inconclusive: 12.6 µM [activator, single point].
With `Cc1ccc(S(=O)(=O)N2CCCCC2)cc1NC(=O)C1CC(=O)N(Cc2ccccc2)C1` (stereo unspecified) the Potency was inconclusive: 14.1 µM [activator, partial curve, poor fit].
For `CC(=O)NC1=NN(C(C)=O)C(C)(c2ccccc2)S1` (stereo unspecified), the Potency was “inactive”.
With `COCCNC(=O)C(=O)N/N=C(\C)CC(=O)Nc1cccc(C(F)(F)F)c1` the Potency was “inactive”.
For `COc1ccc(Nc2c3c(c(C#N)c4nc5ccccc5n24)CCC3)cc1`, the Potency was inconclusive: 3.16 µM [inhibitor, full curve].
For `CC(C)c1ccc(OCC(=O)NNC(=O)c2cnccn2)cc1`, the Potency was inconclusive: 35.5 µM [inhibitor, single point].
For `O=[N+]([O-])c1cccc(NC(=S)N2CCc3ccccc32)c1`, the Potency was inconclusive: 35.5 µM [inhibitor, single point].
